PubChem BioAssay AID504774, Drosophila RNAi Screening Center, 2011
Assay: 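Genes required for cells to withstand methyl methanesulphonate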 (primary screen). Cell system: Drosophila Kc167 cells. Knock-down reagent: long dsRNA against Drosophila genes, about 0.25 µg dsRNA per well. Duration: about 6 days: 3 days knock-down, then 3 days with or without MMS. Conditions: methyl methanesulphonate 0.004% (w/v) for 3 days after knock-down. Read-out: 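ATP-dependent luminescence as a measure of live cells in MMS-exposed wells, quantile normalised within each plate, with replicate values also given as a mean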. Scale: mean viability with MMS: higher = more surviving cells after MMS.
The screen tested about 23,000 reagents; this is a random part of those that have a named target and a result. 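Values are quantile-normalised luminescence on an arbitrary scale; higher means more cells surviving MMS.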 Reagents against one gene are numbered here. A plus sign joins genes that one reagent is predicted to hit. Not all columns of the deposit are shown.

target,reagent no.,mean viability with MMS
CG42542,1,3.59e6
CG42542,2,3.45e6
CG17636,1,3.58e6
CG14302,1,3.70e6
CG2887,1,3.38e6
CG31886,1,3.80e6
Usp2,1,2.30e6
Usp2,2,3.50e6
Usp2,3,3.43e6
CG6262,1,2.87e6
CG6262,2,3.54e6
haf,1,3.50e6
CG6015,1,3.24e6
Pph13,1,3.37e6
Pph13,2,3.32e6
Cam,1,3.69e6
Cam,2,3.69e6
CG34386,1,2.85e6
CG34386,2,3.62e6
CG34386,3,3.57e6
CG32454,1,3.60e6
Drsl5,1,3.60e6
ndl,1,3.52e6
Akap200,1,3.36e6
CG30470 (retired record),1,3.19e6
CG30470 (retired record),2,3.19e6
CG30470 (retired record),3,3.51e6
CG30470 (retired record),4,3.52e6
CG30470 (retired record),5,2.99e6
CG9921,1,2.01e6
Spn77Ba,1,3.60e6
CG11241,1,3.63e6
CG11241,2,3.44e6
eIF3m,1,3.04e6
ben,1,3.73e6
ben,2,3.54e6
PGAP1,1,3.53e6
Mo25,1,3.34e6
CR33283,1,3.47e6
CG11598,1,3.48e6
CG1421,1,3.65e6
Ugt303B3,1,3.55e6
CG14034,1,3.47e6
Cyp4d8,1,3.56e6
CG1924,1,3.64e6
CG14857,1,3.64e6
csul,1,3.62e6
Gr9a,1,3.65e6
Hpr1,1,3.42e6
f-cup,1,3.37e6
sle + CG12592,1,3.52e6
Porin2,1,3.56e6
CG14072,1,3.79e6
CG12075,1,3.56e6
kdn,1,3.87e6
RpL37-2,1,3.48e6
CG7149,1,3.54e6
CG13083,1,3.48e6
PsGEF (retired record),1,3.54e6
PsGEF (retired record),2,3.30e6
CG15530,1,3.74e6
CG32176,1,3.71e6
CG32176,2,3.55e6
Gr97a,1,3.38e6
Gsc,1,3.50e6
Ir51a,1,3.84e6
Ntf-2,1,3.76e6
CG14275,1,3.55e6
CG15708,1,3.49e6
ubl,1,3.27e6
Fcp3C,1,3.56e6
CG15475,1,3.48e6
Gbs-70E,1,3.62e6
dpr20,1,3.65e6
woc,1,3.60e6
Irk2,1,3.71e6
fra,1,3.48e6
Ankle2,1,3.85e6
Ankle2,2,3.52e6
fog,1,3.54e6
CG9003,1,3.47e6
Cyp316a1,1,3.54e6
Rop,1,3.59e6
CG8138,1,3.51e6
CR42548,1,3.55e6
Mst27D,1,3.26e6
CG2528,1,3.62e6

No new results follow: entries from further up.
target,reagent no.,mean viability with MMS
Ugt303B3,1,3.55e6
CG14034,1,3.47e6
Cyp4d8,1,3.56e6
CG1924,1,3.64e6
CG14857,1,3.64e6
